The reference is the same well before dosing, and untreated signal decays as well.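 Cells used are triple-negative breast cancer lines, either basal-like or mesenchymal-like, grown in the absence of fibroblasts. Lower red signal means mitochondrial integrity is lost, a surrogate for apoptosis.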
Columns and labels:
Assay in all cases: relative JC-1 red fluorescence (viability) vs pre-drug, monoculture (fraction); higher = more viable cancer cells
Details in all cases: coculture fibroblast: none (monoculture)
MDAMB436 = test system: MDAMB436
Experimental: (§1)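 JC-1 labelled TNBC cells grown in monoculture (density kept equal with unlabelled cancer cells) in 384-well plates in FluoroBrite medium, treated with one of 42 anticancer drugs at 0.1, 1, 10 or 100 uM. JC-1 red fluorescence (mitochondrial integrity, surrogate of apoptotic death) was read by plate reader every 8 h for 72 h. Values are normalised to each well's pre-drug value, with background from alamethicin. The stock of one drug was tenfold lower, so its dose labels may be too high. Monoculture values are repeated alongside each fibroblast plate and are averaged here.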

MDAMB468 = test system: MDAMB468
Experimental: as §1

MDAMB231 = test system: MDAMB231
Experimental: as §1

BT20 = test system: BT20
Experimental: as §1

O=C1c2c(O)ccc(O)c2C(=O)c2c(NCCNCCO)ccc(NCCNCCO)c21 [Mitoxantrone]
relative JC-1 red fluorescence
Details | 8 h | 16 h | 24 h | 32 h | 40 h | 48 h | 56 h | 64 h | 72 h
BT20, 0.1 µM | 0.786 | 0.737 | 0.632 | 0.5641 | 0.5434 | 0.5283 | 0.515 | 0.51 | 0.506
BT20, 1 µM | 0.4606 | 0.374 | 0.475 | 0.464 | 0.481 | 0.472 | 0.448 | 0.45 | 0.437
BT20, 10 µM | 0.342 | 0.614 | 0.724 | 0.606 | 0.521 | 0.453 | 0.375 | 0.307 | 0.256
MDAMB231, 0.1 µM | 0.6663 | 0.636 | 0.538 | 0.579 | 0.565 | 0.553 | 0.5216 | 0.546 | 0.547
MDAMB231, 1 µM | 0.351 | 0.344 | 0.451 | 0.378 | 0.379 | 0.387 | 0.387 | 0.411 | 0.427
MDAMB231, 10 µM | 0.0832 | 0.0664 | 0.124 | 0.145 | 0.131 | 0.0821 | 0.0534 | 0.053 | 0.0234
MDAMB436, 0.1 µM | 0.809 | 0.735 | 0.716 | 0.658 | 0.639 | 0.629 | 0.631 | 0.624 | 0.62
MDAMB436, 1 µM | 0.674 | 0.587 | 0.61 | 0.5679 | 0.569 | 0.573 | 0.565 | 0.563 | 0.566
MDAMB436, 10 µM | 0.5478 | 0.43 | 0.474 | 0.427 | 0.371 | 0.313 | 0.267 | 0.216 | 0.17
MDAMB468, 0.1 µM | 0.829 | 0.781 | 0.732 | 0.701 | 0.688 | 0.665 | 0.639 | 0.622 | 0.602
MDAMB468, 1 µM | 0.7505 | 0.668 | 0.815 | 0.855 | 0.777 | 0.792 | 0.747 | 0.708 | 0.692
MDAMB468, 10 µM | 0.864 | 0.836 | 0.69 | 0.566 | 0.64 | 0.551 | 0.446 | 0.352 | 0.261

CO[C@H]1C[C@@H]2CC[C@@H](C)[C@@](O)(O2)C(=O)C(=O)N2CCCC[C@H]2C(=O)O[C@H]([C@H](C)C[C@@H]2CC[C@@H](O)[C@H](OC)C2)CC(=O)[C@H](C)/C=C(\C)[C@@H](O)[C@@H](OC)C(=O)[C@H](C)C[C@H](C)/C=C/C=C/C=C/1C [Rapamycin]
relative JC-1 red fluorescence
Details | 8 h | 16 h | 24 h | 32 h | 40 h | 48 h | 56 h | 64 h | 72 h
BT20, 0.1 µM | 0.948 | 0.898 | 0.839 | 0.762 | 0.722 | 0.686 | 0.652 | 0.633 | 0.628
BT20, 1 µM | 0.937 | 0.858 | 0.794 | 0.739 | 0.694 | 0.659 | 0.626 | 0.616 | 0.596
BT20, 10 µM | 0.909 | 0.903 | 0.872 | 0.847 | 0.846 | 0.819 | 0.79 | 0.77 | 0.75
BT20, 100 µM | 0.9535 | 0.967 | 0.814 | 0.906 | 0.86 | 0.807 | 0.726 | 0.644 | 0.556
MDAMB231, 0.1 µM | 0.7871 | 0.68 | 0.73 | 0.6573 | 0.6339 | 0.649 | 0.631 | 0.671 | 0.688
MDAMB231, 1 µM | 0.731 | 0.75168 | 0.7 | 0.688 | 0.659 | 0.648 | 0.62 | 0.638 | 0.627
MDAMB231, 10 µM | 0.711 | 0.844 | 0.791 | 0.943 | 0.955 | 0.951 | 0.918 | 0.945 | 0.936
MDAMB231, 100 µM | 0.6411 | 0.767 | 0.554 | 0.745 | 0.694 | 0.625 | 0.517 | 0.394 | 0.312
MDAMB436, 0.1 µM | 0.875 | 0.7341 | 0.74114 | 0.677 | 0.665 | 0.645 | 0.635 | 0.633 | 0.628
MDAMB436, 1 µM | 0.869 | 0.83 | 0.846 | 0.81 | 0.803 | 0.809 | 0.809 | 0.813 | 0.831
MDAMB436, 10 µM | 0.8442 | 0.971 | 0.903 | 0.86368 | 0.863 | 0.752 | 0.831 | 0.79 | 0.828
MDAMB436, 100 µM | 0.9683 | 0.794 | 0.86 | 0.826 | 0.854 | 0.817 | 0.818 | 0.634 | 0.535
MDAMB468, 0.1 µM | 0.894 | 0.818 | 0.751 | 0.659 | 0.631 | 0.605 | 0.57 | 0.544 | 0.527
MDAMB468, 1 µM | 0.903 | 0.808 | 0.795 | 0.747 | 0.705 | 0.69 | 0.6581 | 0.644 | 0.632
MDAMB468, 10 µM | 0.903 | 0.9237 | 0.918 | 0.791 | 0.732 | 0.678 | 0.603 | 0.566 | 0.54
MDAMB468, 100 µM | 0.878 | 0.744 | 0.592 | 0.427 | 0.366 | 0.315 | 0.224 | 0.153 | 0.175
